Substitutions are numbered along the chain they refer to. Names may count otherwise. No constants are given. Whether binding was seen depends on the method and setting. Some binding calls cover weakened binding; strength is not graded here. Sequences can lack the tags named with a protein.

In article PMC8959180 one finds binding data, which are given here for 3 molecules.

The chains are these.
T1: MurA (bacterial two hybrid fusions to T18 and T25) (L. monocytogenes) (UniProt Q8Y4C4)
T1 sequence: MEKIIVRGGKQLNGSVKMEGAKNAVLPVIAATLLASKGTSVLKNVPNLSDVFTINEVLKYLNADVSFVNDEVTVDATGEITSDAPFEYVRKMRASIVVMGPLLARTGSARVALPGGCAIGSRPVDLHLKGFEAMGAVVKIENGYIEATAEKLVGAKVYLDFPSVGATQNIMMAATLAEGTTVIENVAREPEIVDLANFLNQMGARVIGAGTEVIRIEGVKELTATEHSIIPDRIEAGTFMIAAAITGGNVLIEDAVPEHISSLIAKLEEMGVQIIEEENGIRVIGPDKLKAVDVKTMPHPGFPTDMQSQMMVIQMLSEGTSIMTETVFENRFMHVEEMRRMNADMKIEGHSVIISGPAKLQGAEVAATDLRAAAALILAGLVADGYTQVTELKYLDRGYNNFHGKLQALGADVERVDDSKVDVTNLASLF

B1: MurA (bacterial two hybrid fusions to T18 and T25) (enzyme, UniProt Q8Y4C4 1-430)
chain: T1 sequence
B2: MurA N197D (bacterial two hybrid fusions to T25) (enzyme, UniProt Q8Y4C4 1-430)
chain: T1 sequence with N197D
B3: MurA S262L (bacterial two hybrid fusions to T25) (enzyme, UniProt Q8Y4C4 1-430)
chain: T1 sequence with S262L

This experiment deals with T1, MurA (bacterial two hybrid fusions to T18 and T25) (L. monocytogenes). Description: two-hybrid.
For B1, the binding result is “binds”.
The result for B2 reads “binds”.
The result for B3 reads “binds”.
